# The other results are listed elsewhere or left out. Single values are uncertain, as repeats are few or missing.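 The apoptosis fraction was the count of cleaved-PARP antibody-stained nuclei relative to all DNA-stained nuclei, imaged in 1,536-well plates. Screening doses were set so most cells survived, and baseline and induced cleaved-PARP levels vary greatly across cell lines.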
# Experiments:
# Experiment in all cases: cleaved PARP positive nuclei fraction relative to DMSO control; melanoma cells; higher = more apoptosis
# Conditions in all cases: library dose: low library concentration; 72 h
# 501Mel = tested on: 501Mel
# A101D = tested on: A101D
# A2058 = tested on: A2058
# A375 = tested on: A375
# C32 = tested on: C32
# CBRC008 = tested on: CBRC008 (line from a melanoma biopsy)
# CBRC014 = tested on: CBRC014 (line from a melanoma biopsy)
# CBRC016 = tested on: CBRC016 (line from a melanoma biopsy)
# CBRC017 = tested on: CBRC017 (line from a melanoma biopsy)
# CBRC013 = tested on: CBRC013 (line from a melanoma biopsy)
Structure (SMILES),cleaved PARP positive nuclei fraction (501Mel),cleaved PARP positive nuclei fraction (A101D),cleaved PARP positive nuclei fraction (A2058),cleaved PARP positive nuclei fraction (A375),cleaved PARP positive nuclei fraction (C32),cleaved PARP positive nuclei fraction (CBRC008),cleaved PARP positive nuclei fraction (CBRC014),cleaved PARP positive nuclei fraction (CBRC016),cleaved PARP positive nuclei fraction (CBRC017),cleaved PARP positive nuclei fraction (CBRC013)
"N.N.[Cl][Pt][Cl] [cisplatin] + OCc1c[nH]c2ccccc12 [Indole-3-carbinol] (first compound 1.6 µM, partner dose 0.8 µM)",99.7%,44.4%,104%,119%,37.1%,231%,93.4%,91.6%,134%,–
"C[As](C)SC[C@H](NC(=O)CC[C@H](N)C(=O)O)C(=O)NCC(=O)O [Darinaparsin] + C[C@]1(c2nc3c(C(N)=O)cccc3[nH]2)CCCN1 [Veliparib] (first compound 0.4 µM, partner dose 1.4 µM)",69%,185%,146%,18.9%,197%,44.1%,85.7%,45.1%,81.1%,–
"O=C(/C=C/c1cccnc1)NCCCCC1CCN(C(=O)c2ccccc2)CC1 + C[As](C)SC[C@H](NC(=O)CC[C@H](N)C(=O)O)C(=O)NCC(=O)O [Darinaparsin] (first compound 0.01 µM, partner dose 0.4 µM)",79.1%,193%,82.3%,42.4%,162%,3680%,96.4%,1250%,291%,–
"N.N.[Cl][Pt][Cl] [cisplatin] + Cc1nc(Nc2ncc(C(=O)Nc3c(C)cccc3Cl)s2)cc(N2CCN(CCO)CC2)n1 [dasatanib] (first compound 1.6 µM, partner dose 0.004 µM)",421%,109%,123%,168%,41.4%,80.8%,120%,195%,133%,–
"Cc1cn(-c2cc(NC(=O)c3ccc(C)c(Nc4nccc(-c5cccnc5)n4)c3)cc(C(F)(F)F)c2)cn1 [nilotinib] + N.N.[Cl][Pt][Cl] [cisplatin] (first compound 0.2 µM, partner dose 1.6 µM)",224%,105%,107%,111%,258%,103%,103%,166%,132%,–
"Cc1ccc(Nc2nccc(N(C)c3ccc4c(C)n(C)nc4c3)n2)cc1S(N)(=O)=O [Pazopanib] + N.N.[Cl][Pt][Cl] [cisplatin] (first compound 0.4 µM, partner dose 1.6 µM)",50.2%,65.1%,102%,62%,71.1%,161%,101%,51.9%,84.8%,–
"COc1cc([C@@H]2c3cc4c(cc3[C@@H](O[C@@H]3O[C@@H]5CO[C@@H](C)O[C@H]5[C@H](O)[C@H]3O)[C@H]3COC(=O)[C@H]23)OCO4)cc(OC)c1O [etoposide] + C[As](C)SC[C@H](NC(=O)CC[C@H](N)C(=O)O)C(=O)NCC(=O)O [Darinaparsin] (first compound 0.02 µM, partner dose 0.4 µM)",85.4%,162%,179%,37.2%,68.3%,88.4%,–,70.2%,108%,–
"C[C@]1(O)C[C@@H](c2nc(-c3ccc4ccc(-c5ccccc5)nc4c3)c3c(N)nccn32)C1 + C[As](C)SC[C@H](NC(=O)CC[C@H](N)C(=O)O)C(=O)NCC(=O)O [Darinaparsin] (first compound 0.4 µM, partner dose 0.4 µM)",70.2%,85.4%,45%,879%,82.4%,90.3%,112%,84.3%,223%,–
"O=c1[nH]nc(Sc2ncc([N+](=O)[O-])s2)n1-c1ccc2c(c1)OCCO2 + Cn1cc(C2=C(c3cn(C4CCN(Cc5ccccn5)CC4)c4ccccc34)C(=O)NC2=O)c2ccccc21 [Enzastaurin] (first compound 0.2 µM, partner dose 0.8 µM)",67.3%,86.1%,92%,80.9%,72.5%,87.1%,99.1%,89.5%,106%,–
"COc1ccc(COc2ccc(Cc3cnc(N)nc3N)cc2OC)cc1 + Cc1cc(SCc2sc(-c3ccc(C(F)(F)F)c(F)c3)nc2C)ccc1OCC(=O)O [GW0742] (first compound 1 µM, partner dose 2 µM)",56.4%,112%,272%,83.5%,97.2%,–,87.1%,83.6%,67.3%,188%
"Cn1cc(C2=C(c3cn(C4CCN(Cc5ccccn5)CC4)c4ccccc34)C(=O)NC2=O)c2ccccc21 [Enzastaurin] + CC(C)C[C@H](NC(=O)[C@H](Cc1ccccc1)NC(=O)c1cnccn1)B(O)O [Bortezomib] (first compound 0.8 µM, partner dose 0.001 µM)",334%,635%,118%,46.2%,58.7%,891%,472%,510%,985%,–
"CCCCCCCCCCCCCCCCCCOP(=O)([O-])OC1CC[N+](C)(C)CC1 [Perifosine] + N.N.[Cl][Pt][Cl] [cisplatin] (first compound 0.4 µM, partner dose 1.6 µM)",133%,193%,203%,121%,82.6%,49.2%,101%,128%,116%,–
"Cc1cc(Nc2cc(N3CCN(C)CC3)nc(Sc3ccc(NC(=O)C4CC4)cc3)n2)n[nH]1 [Tozasertib] + C[C@]12O[C@H](C[C@]1(O)CO)n1c3ccccc3c3c4c(c5c6ccccc6n2c5c31)CNC4=O [Lestaurtinib] (first compound 0.006 µM, partner dose 0.004 µM)",83.3%,45.4%,96%,63.3%,33.6%,54%,92.4%,101%,81%,–
"Nc1ccn([C@@H]2O[C@H](CO)[C@@H](O)C2(F)F)c(=O)n1 [gemcitabine] + C[As](C)SC[C@H](NC(=O)CC[C@H](N)C(=O)O)C(=O)NCC(=O)O [Darinaparsin] (first compound 0.0004 µM, partner dose 0.4 µM)",129%,97.9%,112%,84%,69.1%,85.5%,162%,90.7%,235%,–
"COc1ccc(C2=N[C@@H](c3ccc(Cl)cc3)[C@@H](c3ccc(Cl)cc3)N2C(=O)N2CCNC(=O)C2)c(OC(C)C)c1 [Nutlin-3] + N.N.[Cl][Pt][Cl] [cisplatin] (first compound 0.1 µM, partner dose 1.6 µM)",83.5%,258%,73.6%,108%,75.4%,154%,103%,137%,138%,–
"C/C(O)=C(\C#N)C(=O)Nc1cc(Br)ccc1Br + Cc1cc([N+](=O)[O-])ccc1NS(=O)(=O)c1cc(Cl)ccc1Cl [FH535] (first compound 2 µM, partner dose 1 µM)",90.1%,67%,65.6%,47.8%,177%,–,168%,3230%,259%,101%
"N.N.[Cl][Pt][Cl] [cisplatin] + Nc1ccn([C@@H]2O[C@H](CO)[C@@H](O)C2(F)F)c(=O)n1 [gemcitabine] (first compound 1.6 µM, partner dose 0.0004 µM)",80.8%,46.1%,72.6%,37.7%,71.5%,122%,246%,248%,116%,–
"Cc1cc(SCc2sc(-c3ccc(C(F)(F)F)c(F)c3)nc2C)ccc1OCC(=O)O + Cn1cc(/C=C2\C(=O)Nc3cccnc32)c2ccccc21 [GW441756] (first compound 2 µM, partner dose 0.4 µM)",72.2%,56.2%,25.6%,212%,74.3%,–,80.8%,129%,235%,44.4%
"C[C@@H](N)c1ccc(C(=O)Nc2ccnc3[nH]ccc23)cc1 + N.N.[Cl][Pt][Cl] [cisplatin] (first compound 0.4 µM, partner dose 1.6 µM)",109%,198%,125%,35.5%,80.2%,290%,99.5%,179%,136%,–
"C/C(O)=C(\C#N)C(=O)Nc1cc(Br)ccc1Br + COc1cc(N2CCC(N3CCN(C)CC3)CC2)ccc1Nc1ncc(Cl)c(Nc2ccccc2S(=O)(=O)C(C)C)n1 [NVP-TAE684] (first compound 2 µM, partner dose 0.08 µM)",166%,36.9%,81.1%,102%,76.8%,–,182%,47.2%,153%,25.5%
"COc1ccc(COc2ccc(Cc3cnc(N)nc3N)cc2OC)cc1 + C/C(O)=C(\C#N)C(=O)Nc1cc(Br)ccc1Br [LFM-A13] (first compound 1 µM, partner dose 2 µM)",64.5%,109%,72.5%,164%,62.6%,–,88%,34.9%,80.5%,182%
"Cc1cc(SCc2sc(-c3ccc(C(F)(F)F)c(F)c3)nc2C)ccc1OCC(=O)O + Oc1nc(-c2ccc(C(F)(F)F)cc2)nc2c1CSCC2 [XAV939] (first compound 2 µM, partner dose 2 µM)",43.8%,83.3%,174%,69.6%,162%,–,99.9%,64.1%,84.3%,246%

# Record cards, from the list above. Order of values: cleaved PARP positive nuclei fraction (501Mel)	cleaved PARP positive nuclei fraction (A101D)	cleaved PARP positive nuclei fraction (A2058)	cleaved PARP positive nuclei fraction (A375)	cleaved PARP positive nuclei fraction (C32)	cleaved PARP positive nuclei fraction (CBRC008)	cleaved PARP positive nuclei fraction (CBRC014)	cleaved PARP positive nuclei fraction (CBRC016)	cleaved PARP positive nuclei fraction (CBRC017)	cleaved PARP positive nuclei fraction (CBRC013)
# O=c1[nH]nc(Sc2ncc([N+](=O)[O-])s2)n1-c1ccc2c(c1)OCCO2 + Cn1cc(C2=C(c3cn(C4CCN(Cc5ccccn5)CC4)c4ccccc34)C(=O)NC2=O)c2ccccc21 [Enzastaurin] (first compound 0.2 µM, partner dose 0.8 µM) is entered as 67.3%	86.1%	92%	80.9%	72.5%	87.1%	99.1%	89.5%	106%	–
# Cc1ccc(Nc2nccc(N(C)c3ccc4c(C)n(C)nc4c3)n2)cc1S(N)(=O)=O [Pazopanib] + N.N.[Cl][Pt][Cl] [cisplatin] (first compound 0.4 µM, partner dose 1.6 µM) is entered as 50.2%	65.1%	102%	62%	71.1%	161%	101%	51.9%	84.8%	–

# Source: the supplement of paper PMC4604168 (melanoma cell lines)
